No constants are given. Whether binding was seen depends on the method and setting.
Assays:
GST-fused SUMO1 = GST-fused SUMO1 (UniProt P63165); assay: pull-down; GST-fused Ub, ISG15, SUMO1 or SUMO2 loaded on glutathione agarose, USP13 or USP13-UBA12 (~100 µM) added; 1-hr incubation, washed three times, eluted by GSH buffer; SDS-PAGE with Coomassie blue staining; both purified
GST-fused SUMO2 = GST-fused SUMO2 (UniProt P61956); assay: as above

Amino acid sequences for entries named in this document (tags omitted). Residues count along the entry.
UniProt P63165, residues 1-97: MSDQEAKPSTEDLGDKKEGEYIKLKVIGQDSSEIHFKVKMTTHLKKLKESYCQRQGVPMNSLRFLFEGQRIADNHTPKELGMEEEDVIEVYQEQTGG
UniProt P61956: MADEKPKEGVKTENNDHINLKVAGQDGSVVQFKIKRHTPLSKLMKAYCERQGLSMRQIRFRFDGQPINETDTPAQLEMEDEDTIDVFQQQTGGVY

B1: USP13 (residues 21-863) (enzyme, UniProt Q92995 21-863)
chain: AGDIGELLVPHMPTIRVPRSGDRVYKNECAFSYDSPNSEGGLYVCMNTFLAFGREHVERHFRKTGQSVYMHLKRHVREKVRGASGGALPKRRNSKIFLDLDTDDDLNSDDYEYEDEAKLVIFPDHYEIALPNIEELPALVTIACDAVLSSKSPYRKQDPDTWENELPVSKYANNLTQLDNGVRIPPSGWKCARCDLRENLWLNLTDGSVLCGKWFFDSSGGNGHALEHYRDMGYPLAVKLGTITPDGADVYSFQEEEPVLDPHLAKHLAHFGIDMLHMHGTENGLQDNDIKLRVSEWEVIQESGTKLKPMYGPGYTGLKNLGNSCYLSSVMQAIFSIPEFQRAYVGNLPRIFDYSPLDPTQDFNTQMTKLGHGLLSGQYSKPPVKSELIEQVMKEEHKPQQNGISPRMFKAFVSKSHPEFSSNRQQDAQEFFLHLVNLVERNRIGSENPSDVFRFLVEERIQCCQTRKVRYTERVDYLMQLPVAMEAATNKDELIAYELTRREAEANRRPLPELVRAKIPFSACLQAFSEPENVDDFWSSALQAKSAGVKTSRFASFPEYLVVQIKKFTFGLDWVPKKFDVSIDMPDLLDINHLRARGLQPGEEELPDISPPIVIPDDSKDRLMNQLIDPSDIDESSVMQLAEMGFPLEACRKAVYFTGNMGAEVAFNWIIVHMEEPDFAEPLTMPGYGGAASAGASVFGASGLDNQPPEEIVAIITSMGFQRNQAIQALRATNNNLERALDWIFSHPEFEEDSDFVIEMENNANANIISEAKPEGPRVKDGSGTYELFAFISHMGTSTMSGHYICHIKKEGRWVIYNDHKVCASERPPKDLGYMYFYRRIPS
In the case of B1, the binding (GST-fused SUMO1) is reported as “no binding” and the binding (GST-fused SUMO2) is reported as “no binding”.

Source: article PMC3247260
